Measured values taken from patent publication US20040253289A1, “Natural plant compound with anti-HIV activity” (MIKONIK TECHNOLOGIES, LTD., priority 2004, published 2004).
Values joined by “and” are separate entries in the source; they are usually repeats but may differ in a detail not shown here. Equal entries are not always repeated. For some assays here: At least one structure is not confirmed: it was looked up by name or label, or the drawing left a doubt. Some of these results come from one statement about several compounds together.

Tests used:
[1] = tested on: human immunodeficiency virus; settings: HIV replication in vitro; cited from earlier work
[2] = tested on: HIV-1zmb high/rapid strain; assay: Supravital cell staining by the trypan blue; format: cell-based; settings: MT-4 cells, 3rd day after infecting; positive = living cells 75% higher than untreated virus control

CC(C)CCC[C@@H](C)[C@H]1CC[C@H]2[C@@H]3[C@@H](O)C=C4C[C@@H](O)CC[C@]4(C)[C@H]3CC[C@]12C [7β-hydroxycholesterol]
selectivity index [1]: 2 to 8

CC(C)[C@@H](C)[C@@H](O)[C@H](O)[C@@H](C)[C@H]1CC[C@H]2[C@@H]3COC(=O)[C@H]4C[C@H](O)[C@H](O)C[C@]4(C)[C@H]3CC[C@]12C [24-epibrassinolide]
concentration impeding HIV-induced cell death [2]: 10^−6-10^−7.5 and 500.0-10.0
